The source of these data is article PMC12406730.

Sequences of proteins named here, by UniProt entry; tags and fusion partners are left off.
UniProt P46938: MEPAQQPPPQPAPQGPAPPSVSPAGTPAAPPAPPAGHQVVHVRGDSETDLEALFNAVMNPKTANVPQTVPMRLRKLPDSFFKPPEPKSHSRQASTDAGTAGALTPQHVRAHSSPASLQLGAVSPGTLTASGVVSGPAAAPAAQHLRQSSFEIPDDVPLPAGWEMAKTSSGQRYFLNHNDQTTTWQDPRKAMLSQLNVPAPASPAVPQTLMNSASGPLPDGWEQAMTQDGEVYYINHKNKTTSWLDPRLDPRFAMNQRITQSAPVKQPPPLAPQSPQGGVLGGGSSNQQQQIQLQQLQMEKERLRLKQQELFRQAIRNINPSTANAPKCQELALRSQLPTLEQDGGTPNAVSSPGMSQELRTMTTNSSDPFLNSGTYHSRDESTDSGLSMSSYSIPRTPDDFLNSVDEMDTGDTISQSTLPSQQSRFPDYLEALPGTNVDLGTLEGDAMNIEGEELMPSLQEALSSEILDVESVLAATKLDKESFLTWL

No constants are given. Whether binding was seen depends on the method and setting. In cells and extracts the contact can be indirect. Some results given as binding are weak or reduced against the parent protein; the word gives no strength.

In this experiment the target is T1, β-TrCP (in OCY454 cells) (not stated (endogenous in OCY454)) (UniProt Q3ULA2).
T1 sequence: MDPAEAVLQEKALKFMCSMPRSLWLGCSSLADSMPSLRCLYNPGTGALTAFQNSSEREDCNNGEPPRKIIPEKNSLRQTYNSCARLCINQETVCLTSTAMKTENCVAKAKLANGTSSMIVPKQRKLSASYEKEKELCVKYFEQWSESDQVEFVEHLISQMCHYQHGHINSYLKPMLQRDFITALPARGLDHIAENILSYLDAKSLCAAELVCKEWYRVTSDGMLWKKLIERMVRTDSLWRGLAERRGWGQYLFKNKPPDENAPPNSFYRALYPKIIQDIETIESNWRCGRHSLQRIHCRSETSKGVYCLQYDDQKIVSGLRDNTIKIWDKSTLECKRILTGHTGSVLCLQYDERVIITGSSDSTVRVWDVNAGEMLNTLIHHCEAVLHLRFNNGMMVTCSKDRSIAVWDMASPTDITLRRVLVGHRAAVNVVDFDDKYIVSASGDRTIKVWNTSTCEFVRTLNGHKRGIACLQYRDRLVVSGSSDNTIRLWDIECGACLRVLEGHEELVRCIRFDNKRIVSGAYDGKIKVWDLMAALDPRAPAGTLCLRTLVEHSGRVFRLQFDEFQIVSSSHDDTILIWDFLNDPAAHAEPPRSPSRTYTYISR
As to the kind of experiment: co-IP; endogenous proteins; lysate of OCY454 osteocyte cells, with or without PTH.

On to “YAP (in OCY454 cells) (from UniProt P46938 1-488)”, for which the binding entry is reported as “binds”.
